Measured values reported in PMC3344845, “Structure of Bradavidin – C-Terminal Residues Act as Intrinsic Ligands” (PLoS ONE, 2012).

Biological target: rhizavidin (Rhizobium etli)
Test: ITC; core-bradavidin, avidin, streptavidin or rhizavidin in the cell, Brad-tag in the syringe, 40°C, 50 mM sodium phosphate pH 7.0, 100 mM NaCl; n is the stoichiometry per subunit; both purified

binding: no binding
Binder: SEKLSNTK [Brad-tag (synthetic peptide SEKLSNTK)]

No constants are given. Whether binding was seen depends on the method and setting. Tags and fused reporters may be left off the sequences shown.
